These are yes or no findings as the source states them, for the method shown. Binding can be weak; no strength is given. For part of these data: Where a sequence is shown, tags or fusion partners need not be part of it. For part of these data: In cells and extracts the contact can be indirect. Blank lines part the entries; values can stand above or below the molecule they belong to.
Assays:
[1] = molecular target: T1, Put7-V5 (Ylr283w with a C-terminal V5 tag) (S. cerevisiae) (UniProt Q05867); assay: native gel or EMSA; Blue-native PAGE (3–12% gradient Native Bis-Tris gel) of mitochondria solubilized in 1% digitonin, immunoblot with anti-V5; strains with or without PUT6/PUT7; cells also grown in ammonium sulfate, proline or glutamate
T1 sequence: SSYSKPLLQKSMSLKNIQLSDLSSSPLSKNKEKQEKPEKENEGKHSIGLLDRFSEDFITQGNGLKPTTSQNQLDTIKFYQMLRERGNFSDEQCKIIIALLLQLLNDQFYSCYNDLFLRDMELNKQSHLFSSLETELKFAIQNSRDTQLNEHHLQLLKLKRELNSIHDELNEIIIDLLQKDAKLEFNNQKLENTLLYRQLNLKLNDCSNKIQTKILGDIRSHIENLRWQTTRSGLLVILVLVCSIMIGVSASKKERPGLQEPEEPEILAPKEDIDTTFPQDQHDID

[2] = molecular target: T2, Put7-HA (Ylr283w with a C-terminal hemagglutinin tag) (S. cerevisiae) (UniProt Q05867); assay: co-IP; 1 mg crude mitochondria solubilized in IP buffer (20 mM HEPES-KOH pH 7.4, 1 mM CaCl2, 100 mM NaCl, 1% digitonin, 10% glycerol), 4 °C; IP with anti-V5 or anti-HA on Dynabeads Protein G; immunoblot with anti-HA or anti-V5
T2 sequence: T1 sequence

[3] = molecular target: Put6-V5 (Fmp32 with a C-terminal V5 tag) (S. cerevisiae); assay: native gel or EMSA; Blue-native PAGE (3–12% gradient Native Bis-Tris gel) of mitochondria solubilized in 1% digitonin, immunoblot with anti-V5; strains with or without PUT6/PUT7; cells also grown in ammonium sulfate, proline or glutamate

- binding [1]: binds
Molecule: Put6 (Fmp32), endogenous

- binding [2]: binds
Molecule: Put6-V5 (Fmp32 with a C-terminal V5 tag) (S. cerevisiae)

- binding [3]: binds
B1: Put7 (Ylr283w), endogenous (protein, UniProt Q05867 30-314)
chain: T1 sequence
